Results are given in words; binding and its absence hold for the method and conditions named. Binding seen in cells or lysates may run through a third protein. Binding calls can cover weak binding; strength is not graded here. Sequences can lack the tags named with a protein.
Molecular target: T1, 3HA-FBW2 (3x human influenza hemagglutinin (HA)-epitope at the N terminus of FBW2) (Arabidopsis thaliana) (UniProt Q9ZPE4)
T1 sequence: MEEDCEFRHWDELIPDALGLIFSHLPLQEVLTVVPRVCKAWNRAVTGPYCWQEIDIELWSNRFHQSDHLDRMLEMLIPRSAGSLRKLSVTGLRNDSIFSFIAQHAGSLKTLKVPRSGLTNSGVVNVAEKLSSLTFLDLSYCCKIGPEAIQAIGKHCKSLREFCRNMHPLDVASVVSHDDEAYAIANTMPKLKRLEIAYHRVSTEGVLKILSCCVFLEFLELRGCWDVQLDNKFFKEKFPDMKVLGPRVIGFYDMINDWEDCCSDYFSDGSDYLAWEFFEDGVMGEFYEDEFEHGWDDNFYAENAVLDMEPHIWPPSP
Experiment: co-IP; 3HA-FBW2 immunoprecipitated with anti-HA magnetic beads from extracts of 10-day-old XVE:3HA-FBW2 seedlings after overnight induction with DMSO or 10 μM β-estradiol, with or without MLN4924; IP buffer 25 mM Tris HCl pH 7.5, 150 mM NaCl, 10% glycerol, 5 mM MgCl2, 0.1% Tween 20, 15 mM EGTA, 10 μM MG132; 3 h at room temperature; western blot (Figure 2B, Figure S9)

By UniProt entry, the sequences of proteins in these tests, tags left out. Where a name states a change or a piece, a line headed by the entry shows the natural chain unless it says otherwise.
UniProt O04379: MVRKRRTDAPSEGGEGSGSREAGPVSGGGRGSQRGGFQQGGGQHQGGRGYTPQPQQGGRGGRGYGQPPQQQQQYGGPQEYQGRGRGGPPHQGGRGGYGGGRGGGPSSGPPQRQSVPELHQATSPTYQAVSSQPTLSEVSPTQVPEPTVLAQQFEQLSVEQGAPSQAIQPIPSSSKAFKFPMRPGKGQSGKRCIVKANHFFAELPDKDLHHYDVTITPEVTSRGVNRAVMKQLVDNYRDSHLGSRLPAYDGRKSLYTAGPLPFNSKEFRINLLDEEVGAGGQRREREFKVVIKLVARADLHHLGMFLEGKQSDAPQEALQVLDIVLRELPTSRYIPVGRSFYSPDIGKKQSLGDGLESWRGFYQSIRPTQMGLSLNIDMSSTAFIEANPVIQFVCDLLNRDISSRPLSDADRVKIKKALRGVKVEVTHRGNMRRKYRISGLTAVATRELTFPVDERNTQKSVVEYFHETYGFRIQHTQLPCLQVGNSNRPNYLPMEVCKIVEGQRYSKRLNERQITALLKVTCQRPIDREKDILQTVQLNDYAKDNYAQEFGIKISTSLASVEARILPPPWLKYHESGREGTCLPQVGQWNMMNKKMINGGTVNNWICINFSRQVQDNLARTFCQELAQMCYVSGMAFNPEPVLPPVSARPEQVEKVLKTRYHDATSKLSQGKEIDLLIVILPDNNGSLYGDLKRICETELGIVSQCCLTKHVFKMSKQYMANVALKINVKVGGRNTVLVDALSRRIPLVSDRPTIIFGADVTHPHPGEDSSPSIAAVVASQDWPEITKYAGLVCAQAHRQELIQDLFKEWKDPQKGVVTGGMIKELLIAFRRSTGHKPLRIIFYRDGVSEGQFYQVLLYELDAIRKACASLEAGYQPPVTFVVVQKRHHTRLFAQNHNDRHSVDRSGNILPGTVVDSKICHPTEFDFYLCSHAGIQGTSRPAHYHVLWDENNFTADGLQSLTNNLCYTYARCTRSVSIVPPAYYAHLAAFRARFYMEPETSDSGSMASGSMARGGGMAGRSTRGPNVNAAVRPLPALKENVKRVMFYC

Substance	binding
AGO1-27 mutant protein (from UniProt O04379)	binds
RBX1	binds

Source: article PMC9035678
